Data on 42 molecules can be found in PubChem BioAssay AID2685 (National Center for Advancing Translational Sciences (NCATS), 2010).

This experiment is described as follows: qHTS Assay for Lipid Storage Modulators in Drosophila S3 Cells.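 On cell number change: cells counted by Cell Tracker Red CMTPX staining in the red channel.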 The settings on record: BODIPY lipid droplet fluorescence, 18-24 h; for cell number change: measured here: cell count max response, cells fed with added oleic acid. The gist of the method: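 Drosophila S3 cells loaded with oleic acid (400 uM, as added) and compounds at several concentrations; lipid droplets imaged by 488-nm laser-scanning cytometry, 500–530 nm intensity and object ratio to cell channel. Percent activity normalized to 20 uM Triacsin C.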
In general terms: In qHTS, concentration-response curves come from the screen itself.

Where [1] appears, read: measured here: lipid fluorescence (Fed channel) AC50, cells fed with added oleic acid.
The mark [2] stands for this setting: measured here: cell number channel AC50, cells fed with added oleic acid.

A word on the AC50: it is the midpoint of the concentration-response curve, whichever way the signal moves. A high value points to weaker potency.

Each structure is given as a SMILES string. The list shows a part of the results. Shown are side measurements of this screen, not its main read-out; they come without a call. The list favours compounds with an active or inconclusive main result. Potencies come from curve fits of mixed quality, noted in brackets.

Turning to `CCc1ccc(NC(=O)N(CCCN2CCOCC2)Cc2cccs2)cc1`, the cell number change was -8.75%. Under setting [1], the AC50 was 0.366 µM [rising, full curve, poor fit]. `Cn1cc(Br)c(C(=O)NNC(=O)Cc2ccc(Cl)cc2)n1`: the cell number change is 0.952%. Further, the AC50 under setting [2] was 0.058 µM [rising, full curve, poor fit]. With `Nc1c(C(=O)O)cnc2nc(N3CCOCC3)nn12`, the cell number change is -1.9%. Moreover, the AC50 under setting [2] was 0.184 µM [falling, single point]. Consider `COC(=O)CCC(=O)Nc1ccc(N=Nc2ccccc2)cc1`, for which the cell number change is -24.5%. Take `O=C(Cn1nnc(-c2ccccc2)n1)OC1CCOC1=O` (stereo not given): the cell number change came out at 2.07%.

`COc1ccccc1-n1cnc2cc(NC(=O)c3ccco3)ccc21`: the cell number change was found to be 53.5%. For the same molecule, under setting [2], the AC50 is 1.46 µM [rising, partial curve, poor fit]. Besides, the concentration at half-maximal activity (AC50) under setting [1] was 0.58 µM [rising, single point]. `O=C(O)Cc1ccc(NS(=O)(=O)c2ccc3ccccc3c2)cc1`: the cell number change is 28%. In addition, under setting [1], the AC50 is 25.9 µM [rising, partial curve, poor fit]. Take `CCOC(=O)/C=C1\SCC(=O)N1CC(=O)NC(C)C`: the cell number change is -9.86%. With `O=C(CC1OC(=O)c2ccccc21)NCC1COc2ccccc2O1` (stereo not given), the cell number change amounted to 7.09%. Besides, the half-maximal activity concentration (AC50) under setting [1] was 29.1 µM [rising, single point]. For `COCCCNc1ncnc2nc[nH]c12`, the cell number change is -94.7%. For the same molecule, under setting [1], the AC50 was 29.1 µM [falling, single point]. Regarding `CCOC(=O)NC(=O)COC(=O)CCCSc1nc2ccccc2s1`, the AC50 reads like this: under setting [2], 6.51 µM [falling, single point]; under setting [1], 6.51 µM [falling, single point].

Take `CCOc1ccc(C2NC(=O)c3ccccc3O2)cc1` (stereo not given): the cell number change was -3.99%. As for `CCCCCCc1c(O)c2ccccc2[nH]c1=O`, the cell number change was -10.5%. The half-maximal activity concentration (AC50) under setting [1] is 1.16 µM [falling, full curve]. For the molecule `Cc1c([N+](=O)[O-])c(C(=O)NC2CCCC2)nn1C`, the cell number change is -7.46%. As to `CC(=O)NNC(=S)Nc1cc(S(=O)(=O)N(C)C)ccc1C`, the cell number change amounted to 15.7%. Besides, the half-maximal activity concentration (AC50) under setting [2] is 0.0058 µM [rising, full curve, poor fit]. Consider `COc1ccccc1NC(=O)CSc1ccc2nnc(-c3ccccn3)n2n1`, for which the cell number change came out at 86.9%. For the same molecule, the concentration at half-maximal activity (AC50) under setting [2] is 1.64 µM [rising, full curve]. Also, the concentration at half-maximal activity (AC50) under setting [1] was 1.64 µM [rising, partial curve].

As to `Cn1c(N=Nc2ccc(N3CCOCC3)cc2)[n+](C)c2ccccc21`, the cell number change is -12.1%. Moreover, the half-maximal activity concentration (AC50) under setting [1] is 18.4 µM [falling, single point]. Take `CCN(CC)P(=O)(Nc1ccc(Br)cc1)c1c(C)nn(CCC#N)c1NC(=O)c1ccc(Cl)cc1` (stereo not given): the cell number change was -4.76%. For `CNc1c(NS(=O)(=O)c2ccc(F)cc2)c(=O)oc2ccccc12`, the cell number change amounted to 2.63%. For the same molecule, the AC50 under setting [1] is 35.5 µM [falling, single point]. Consider `O=C(COC(=O)c1ccco1)Nc1ccccc1[N+](=O)[O-]`, for which the cell number change turned out to be 55.9%. For the same molecule, the AC50 under setting [2] is 20.6 µM [rising, single point]. Besides, the half-maximal activity concentration (AC50) under setting [1] is 6.51 µM [falling, single point].

For `Cc1ccccc1-c1cc(C(=O)Nc2sc(C(=O)OC(C)C)c(C)c2C#N)c2ccccc2n1`, the cell number change is -21.7%. In addition, under setting [2], the AC50 is 0.13 µM [falling, full curve, poor fit]. `CCc1ccc(N2C(=O)c3cc(N4CCOCC4)c([N+](=O)[O-])cc3C2=O)cc1`: the cell number change was -28.3%. In addition, the AC50 under setting [1] is 23.1 µM [rising, single point].

As for `C=CCn1c(SCC(C)=O)nnc1-c1cc(-c2ccccc2)sc1N`, the cell number change is -32.3%. Also, the AC50 under setting [2] was 16.4 µM [falling, partial curve]. Besides, under setting [1], the concentration at half-maximal activity (AC50) is 14.6 µM [falling, single point].

Turning to `O=C(Nn1c(-c2ccccc2)nc2ccccc2c1=O)c1ccco1`, the cell number change is -13.8%. The AC50 under setting [1] was 0.092 µM [rising, full curve, poor fit].

For the molecule `O=C(Nc1nnc(COc2ccccc2)s1)c1ccco1`, the cell number change is -31%. Also, the AC50 under setting [2] was 16.4 µM [falling, single point]. On to `CCc1cc(C(=O)N(CCCOC)c2c(N)n(Cc3ccccc3)c(=O)[nH]c2=O)sc1C`, for which the cell number change was 2.08%. In the case of `COc1ccc(-c2ccc(SCc3cccnc3)nn2)cc1OC`, the cell number change was determined as 17.1%. Moreover, the half-maximal activity concentration (AC50) under setting [1] is 29.1 µM [rising, single point]. Regarding `NC(N)=N/N=C/c1ccc(OCc2ccccc2)cc1`, the cell number change was -36.8%. In addition, the AC50 under setting [2] is 7.31 µM [falling, full curve, poor fit]. The concentration at half-maximal activity (AC50) under setting [1] is 6.51 µM [falling, partial curve, poor fit].

Regarding `CC(=O)c1c(C)[nH]c(C(=O)Nc2ccc(C)cn2)c1C`, the cell number change is -0.706%. The AC50 under setting [2] was 0.206 µM [rising, full curve, poor fit]. The concentration at half-maximal activity (AC50) under setting [1] was 6.51 µM [rising, partial curve]. As to `COCCn1c(C)cc(C(=O)COc2ccc(N(C)S(=O)(=O)c3ccc(C)cc3)cc2)c1C`, the cell number change was -17.1%.

For `Cc1cc(C)c(C(=O)N2CCC(N3CCC(C(=O)NC(C)C)CC3)CC2)o1`, the cell number change is -1.62%. As for `CC1=C(C)CC(C(=O)c2ccccc2)C(C(=O)O)C1` (stereo not given), the cell number change came to 75%. Also, the concentration at half-maximal activity (AC50) under setting [2] is 29.1 µM [rising, single point]. Take `Cc1cc(O)cc(O)c1C(=O)Cc1cscn1`: the cell number change is -10%. Further, the half-maximal activity concentration (AC50) under setting [1] is 1.46 µM [falling, partial curve].

Turning to `CCOCCCNC(=O)C(NC(=O)CNC(C)=O)c1ccc(C)cc1` (stereo not given), the cell number change was found to be 10.3%. Moreover, the AC50 under setting [1] is 23.1 µM [falling, single point]. With `CSc1ccc(CN(C)CC(=O)NCCc2ccccc2)cc1`, the cell number change came to 8.87%. Under setting [1], the AC50 is 18.4 µM [falling, single point]. On to `CN(C)c1ccc(-c2noc(-c3ccccc3O)n2)cc1`, for which the cell number change amounted to 22.1%. Under setting [1], the half-maximal activity concentration (AC50) was 0.0058 µM [falling, full curve, poor fit].

In the case of `C=CCSc1nc(C)c(CCCC)c(=O)[nH]1`, the cell number change came out at 5.25%. Besides, the concentration at half-maximal activity (AC50) under setting [1] was 0.00517 µM [falling, full curve, poor fit]. Turning to `O=C(CNc1ccccc1Cl)c1ccc(Br)cc1`, the cell number change was determined as 4.99%. In addition, under setting [1], the concentration at half-maximal activity (AC50) was 29.1 µM [falling, single point]. As to `O=C1C2C3C=CC(C3)C2C(=O)N1c1ccccc1OS(=O)(=O)c1ccccc1` (stereo not given), the cell number change amounted to 0.57%. Under setting [1], the concentration at half-maximal activity (AC50) is 6.51 µM [rising, single point].

In the case of `CN(CCc1ccccn1)C1CCCN(S(=O)(=O)c2ccc(F)c(Cl)c2)C1` (stereo not given), the cell number change was 3.76%. Moreover, the half-maximal activity concentration (AC50) under setting [1] was 6.51 µM [falling, single point]. For `CCn1c(O)c(N=N)c2ccccc21`, the cell number change is -2.44%.

With `COC(=O)C1=C(C)N(Cc2ccc(C)cc2)C(=O)/C1=C\c1cc(OC)c(OC)c(OC)c1`, the cell number change is -12.8%. Besides, the AC50 under setting [1] was 13 µM [falling, single point].
